Out of some 300,000 compounds screened, about 5,400 (1.8%) were called active. This list was built around the results that the source calls inconclusive (neither active nor inactive); the mix of calls is not that of the screen. Calls follow the shape of the full dose curve; tested in HEK293 cells. Potencies beside an inconclusive call are fits to weak or partial responses and may not hold up.
Test: qHTS for inhibitors of binding or entry into cells for Marburg Virus
Conditions: Marburg virus pseudotyped entry inhibition, cell reporter; activity change, negative = inhibition: at 37.8 µM (top of the series) unless noted
% is scaled to controls: 0 for no effect and ±100 for the full control effect; potency is read from the fitted curve at half-maximal effect.

| Structure (SMILES) | Potency | activity change, negative = inhibition |
| --- | --- | --- |
| CCCCOC(=O)n1c(=S)oc2cc(Cl)ccc21 | inactive |  |
| CCOC(=O)c1c(N)sc2c1CCC(Br)=C2OCC | inconclusive: 20.6 µM [inhibitor, single point] |  |
| CCCCn1c(N)c(N(CC(C)C)C(=O)CSCc2c(C)noc2C)c(=O)[nH]c1=O | inconclusive: 0.631 µM [inhibitor, full curve, poor fit] |  |
| Cc1ccnc(NS(=O)(=O)c2ccc(NS(=O)(=O)c3ccc([N+](=O)[O-])cc3)cc2)n1 | inconclusive: 4.11 µM [activator, single point] |  |
| COc1cc(NC(=S)NCCc2c[nH]c3ccccc23)c(OC)cc1Cl | inconclusive: 0.562 µM [activator, full curve, poor fit] |  |
| CC1C(=O)Nc2ccc(S(=O)(=O)NCc3ccc(N(C)C)cc3)cc2NC1=O (configuration not stated) | inconclusive: 10 µM [inhibitor, partial curve, poor fit] |  |
| O=C(Nc1ccccc1)c1ccccc1O | inconclusive: 29.1 µM [activator, single point] |  |
| CCc1nc2ccc(C(=O)N(C)CC(=O)Nc3ccc(Cl)c(C(F)(F)F)c3)cc2nc1CC | inconclusive: 2.82 µM [inhibitor, partial curve, poor fit] |  |
| COc1ccc(OCCn2c(C(C)Oc3ccccc3)nc3ccccc32)cc1 (configuration not stated) | inconclusive: 22.4 µM [inhibitor, single point] |  |
| O=C(CSc1nc2nc(-c3cccs3)cc(C(F)(F)F)c2c(=O)[nH]1)Nc1ccc(F)c(F)c1 | inconclusive: 35.5 µM [inhibitor, single point] |  |
| C/C(=N\NC(=O)c1ccccc1OCCOc1ccccc1)c1ccccc1F | active: 11.2 µM |  |
| Cc1occc1-c1nnc(SCC(=O)N2CCN(c3ccc(F)cc3)CC2)n1C | inconclusive: 14.1 µM [inhibitor, partial curve, poor fit] |  |
| O=C1C(Cl)=C(NCCc2ccccc2)C(=O)c2ccccc21 | inconclusive: 22.4 µM [inhibitor, single point] |  |
| CC1CCCC(NC(=O)CSc2n[nH]c(=O)n2Cc2ccccc2)C1C (configuration not stated) | inconclusive: 25.1 µM [inhibitor, single point] |  |
| COc1ccc(/C=C(\C#N)c2nc3ccccc3[nH]2)cc1O | inconclusive: 14.1 µM [inhibitor, partial curve, poor fit] |  |
| CCN(CC)c1ccc(S(=O)(=O)N2CCOCC2)cc1NC(=O)CSc1cccc[n+]1[O-] | inconclusive: 0.112 µM [activator, full curve, poor fit] |  |
| Cc1ccc(N(C(=O)c2nsc(Cl)c2Cl)C(C(=O)NC2CCCC2)c2ccc(O)cc2)cc1C (configuration not stated) | inconclusive: 35.5 µM [inhibitor, single point] |  |
| O=C(COC(=O)/C=C/c1cccc(C(F)(F)F)c1)NCc1cccs1 | inactive |  |
| Cc1cc(NC(=O)CSc2nnc(CNC(=O)c3ccccc3)o2)no1 | inactive |  |
| CCN1CCN(C(=O)c2cc(COc3ccc(C(C)=O)cc3OC)on2)CC1 | inconclusive: 1.12 µM [activator, full curve, poor fit] |  |
| CCOc1ccc2nc(N3CCCC(C(=O)NCCCOC)C3)sc2c1 (configuration not stated) | inconclusive: 4.47 µM [activator, full curve] |  |

Grouped by structure, those above containing two or more sulfur atoms

| Structure (SMILES) | Potency | activity change, negative = inhibition |
| --- | --- | --- |
| Cc1ccnc(NS(=O)(=O)c2ccc(NS(=O)(=O)c3ccc([N+](=O)[O-])cc3)cc2)n1 | inconclusive: 4.11 µM [activator, single point] |  |
| O=C(CSc1nc2nc(-c3cccs3)cc(C(F)(F)F)c2c(=O)[nH]1)Nc1ccc(F)c(F)c1 | inconclusive: 35.5 µM [inhibitor, single point] |  |
| CCN(CC)c1ccc(S(=O)(=O)N2CCOCC2)cc1NC(=O)CSc1cccc[n+]1[O-] | inconclusive: 0.112 µM [activator, full curve, poor fit] |  |

(list continues)

| Structure (SMILES) | Potency | activity change, negative = inhibition |
| --- | --- | --- |
| COC(=O)CC(=O)CSc1nc2c(cc1C#N)CCC2 | inconclusive: 16.4 µM [inhibitor, single point] |  |
| Cc1cccc(C)c1NC(=O)/C(C#N)=C/c1ccc(-c2ccc(C(=O)O)cc2)o1 | inconclusive: 22.4 µM [activator, partial curve, poor fit] |  |
| Cc1oc(-c2ccccc2)nc1C(=O)O | inactive |  |
| COc1ccccc1NC(=S)NC(=O)Cc1ccc(Cl)cc1 | inconclusive: 25.1 µM [inhibitor, single point] |  |
| N/C(=N\OC(=O)c1ccccc1Cl)c1ccccn1 | inconclusive: 5.8 µM [inhibitor, partial curve, poor fit] |  |
| N#Cc1nc(COc2ccccc2Cl)oc1NCc1ccc(F)cc1 | inconclusive: 10.3 µM [inhibitor, single point] |  |
| CCN1CCc2nc3sc(C(=O)c4ccccc4)c(N)c3cc2C1 | inconclusive: 4.47 µM [inhibitor, full curve, poor fit] |  |
| COc1ccc(C2(O)C(=O)Nc3ccccc32)cc1 (configuration not stated) | inconclusive: 28.2 µM [activator, single point] |  |
| COc1ccc(/C=C\C(=O)NCc2ccc3[nH]c(C)cc3c2)cc1OC | inactive |  |
| NNC1=N[C@H]2CS(=O)(=O)C[C@H]2S1 |  | inconclusive: 0.728% [activator] |
| COc1ccc(S(=O)(=O)Nc2ccc3c(c2)OCO3)cc1C | inactive |  |
| Cc1ccc2c(c1)nnn2C1CCN(C(=O)C23CC4CC(CC(C4)C2)C3)CC1 | inactive |  |
| O=C(CSc1nc(Nc2ccccc2)nc(N2CCOCC2)n1)Nc1cccc([N+](=O)[O-])c1 | inconclusive: 2 µM [inhibitor, partial curve, poor fit] |  |
| Cc1occc1-c1nnc(SCC(=O)c2ccc(F)cc2)n1Cc1ccco1 | inactive |  |
| O=C(/C=C/c1ccc(S(=O)(=O)N2CCOCC2)cc1)N1CCN(c2ccc(F)cc2)CC1 | inconclusive: 7.08 µM [inhibitor, full curve] |  |
| Cc1ccc(S(=O)(=O)N(C)c2ccc(C(=O)Nc3cccc(C)n3)cc2)cc1 | inconclusive: 25.1 µM [inhibitor, single point] |  |
| COc1cccc2c(N/N=C/c3ccc(O)c(O)c3)cc(C)nc12 | inactive |  |
| CC12CCC(C(=O)N3CCC(Cc4ccccc4)CC3)(C(=O)C1=O)C2(C)C (configuration not stated) | inconclusive: 17.8 µM [inhibitor, single point] |  |
| COc1ccc(-n2c(SCCC(=O)O)nnc2-c2ccncc2)cc1 | inactive |  |
| CCOC(=O)c1ccccc1N/C=C1\CCCC1=O | inconclusive: 16.4 µM [activator, partial curve] |  |
| C[C@]12CCC(=O)C=C1CC[C@@H]1[C@@H]2CC[C@]2(C)C(=O)CC[C@@H]12 | inconclusive: 10 µM [inhibitor, partial curve, poor fit] |  |

Reference: PubChem BioAssay AID540276 (National Center for Advancing Translational Sciences (NCATS), 2011)
